Read-outs that look alike come from different tables or passages of the source.

As for `CC(C)(C)CC(C)(C)c1ccc(O)cc1` [p-(1,1,3,3-tetramethylbutyl)-phenol], the “NMP in aqueous raffinate” value (Example 9, feed about 35% NMP, X:S=2:1, 90° C., analogously to Example 7) was 0.04 % by weight.

As for nonylphenol, the extraction yield result (Example 2, feed 33.4% NMP, room temperature, pulsed counter-current, four stages, 1.43 parts nonylphenol per part bath) was “more than 99.97%”; the extraction yield (Example 3, feed 33.4% NMP, X:S=4:1, 70° C., 4-stage mixer/settler) turned out to be 99.4%; the extraction yield entry (Example 5, feed about 35% NMP, X:S=2:1, 60° C., about 5 to 6 theoretical stages, Karr 2.5 m) was “about 99.99%”.

(Values after patent US5068358A, “Process for extracting N-methyl-2-pyrrolidone” (Hoechst Aktiengesellschaft, priority 1988, dated 1991).)
